In PubChem BioAssay (NCATS):
Where “and” joins values, the source holds several entries; their conditions need not be identical. Identical values can stand only once. Some of the results follow.

experiment: qHTS assay for small molecule antagonists of retinoid X receptor alpha signaling (AID 588546); settings: HEK293T RXRa-UAS-bla, beta-lactamase ratio, antagonist mode; measured here: W530 green channel, cytotoxicity proxy
Excerpt: NIH Chemical Genomics Center [NCGC] U.S. Environmental Protection Agency [EPA] National Institutes of Environmental Health Sciences [NIEHS] National Toxicology Program [NTP] NCGC Assay Overview The Retinoid X receptor (RXR), a nuclear hormone receptor is expressed in liver, spleen, placenta, epidermis, central nervous system. These receptors are able to form homo and heterodimers with other nuclear receptors and due to this heterodimerizing ability, RXR functions as master regulators producing diverse physiological effects. Three subtypes of RXR exist; alpha, beta and gamma. Retinoid X receptor alpha (RXR-alpha) has potential roles in metabolic signaling pathways, skin alopecia, dermal cysts, cardiac development, insulin sensitization etc. Therefore screening environmental chemicals on RXR-alpha signaling can be used for the studies focused on such therapeutic applications.
NCGC Assay Protocol Summary Using a beta-lactamase reporter-gene under control of Retinoid X receptor--alpha (RXR-alpha) response element, a cell-based assay [GeneBLAzer (RXR-alpha -UAS-bla assay developed by Invitrogen] was used to measure RXR-alpha ligands signaling. GeneBLAzer RXR-alpha -UAS-bla HEK293T cells were used with assay medium containing 2% charcoal-stripped FBS. The assay was performed in clear bottom black Greiner 1536-well plates. Library compounds were measured for their ability to inhibit the reporter gene activity. Compounds were screened in a titration series in 1536-well format. The fluorescence intensity (405 nm excitation, 460/530 nm emission) was measured using an EnVision plate reader. Data was normalized relative to 9-cis-retinoic acid control (500 nM, 100%), and DMSO only wells (basal, 0%). Concentration-response titration points for each compound were fitted to the Hill equation yielding concentrations of half-maximal inhibition (IC50) and maximal response (efficacy) values. qHTS protocol for RXR-alpha beta-lactamase assay in antagonist mode [Step] [Parameter] [Value] [Description] 1. Reagent; 5 uL; 2500 cells/well 2. Incubation; 37 C for 4 hrs 3. Compounds; 23 nL; 0.59 nM to 92 uM 4. Controls (DMSO); 23 nL 5. Agonist (Stimulator); 1uL; 9-cis-retinoic acid at 500 nM and 100 nM final concentrations 6. Incubation; 37 C for 18 hrs 7. Detection reagent; 1 uL of CCF4-dye 8. Incubation; RT for 2 hrs 9. Detection; Fluorescence; Envision plate reader
% is scaled to controls: 0 for no effect and ±100 for the full control effect.

SMILES	max response
NC(=O)Nc1ccc([As](=O)(O)O)cc1	-4.65%
ClP(Cl)c1ccccc1	-22.5%
CCOP(=O)(CC)OCC	-0.685%
CC(C)OP(=O)(OC(C)C)SCCNS(=O)(=O)c1ccccc1	-6.67%
[NH4+].[O-][Cl+3]([O-])([O-])[O-]	4.58%
Cc1cccc([N+](=O)[O-])c1[N+](=O)[O-]	-0.883% and -11.6%
O=[N+]([O-])c1ccc([N+](=O)[O-])cc1	7.9%
CCOP(=S)(CC)Oc1cc(Cl)c(Cl)cc1Cl (centres undefined)	-20.2%
CN(N=O)C(=N)N[N+](=O)[O-]	-3.92%
Cc1c([N+](=O)[O-])cccc1[N+](=O)[O-]	-11.4% and -5.71%
Cc1ccc([N+](=O)[O-])cc1[N+](=O)[O-]	-10.5% and -10.2%
O=C1C2CC=CCC2C(=O)N1SC(Cl)(Cl)C(Cl)Cl (centres undefined)	-16%
O=[N+]([O-])[O-].[NH4+]	-2.85%
COP(=S)(Cl)OC	-19.3%
Cc1ccc([N+](=O)[O-])c([N+](=O)[O-])c1	7.33% and 17.7%
CCC(C)(OO)OOC(C)(CC)OO (centres undefined)	-5.79% and -7.53%
O=[N+]([O-])c1cccc([N+](=O)[O-])c1	-2.04% and -20.3%
CC(C)OP(=S)(OC(C)C)SCCNS(=O)(=O)c1ccccc1	11.4%
Cc1cc([N+](=O)[O-])cc([N+](=O)[O-])c1O	-9.4% and 4.83%
